Data taken from article PMC3633926.
Construct, isoform or probe ends are uncertain for at least one entry. At least one result comes from cells or an extract, where the contact may be indirect. A weaker result is weaker than the reference pair of the same experiment.

The chains behind the UniProt entries cited, without tags or fusion partners.
UniProt P43694, whole entry A74D: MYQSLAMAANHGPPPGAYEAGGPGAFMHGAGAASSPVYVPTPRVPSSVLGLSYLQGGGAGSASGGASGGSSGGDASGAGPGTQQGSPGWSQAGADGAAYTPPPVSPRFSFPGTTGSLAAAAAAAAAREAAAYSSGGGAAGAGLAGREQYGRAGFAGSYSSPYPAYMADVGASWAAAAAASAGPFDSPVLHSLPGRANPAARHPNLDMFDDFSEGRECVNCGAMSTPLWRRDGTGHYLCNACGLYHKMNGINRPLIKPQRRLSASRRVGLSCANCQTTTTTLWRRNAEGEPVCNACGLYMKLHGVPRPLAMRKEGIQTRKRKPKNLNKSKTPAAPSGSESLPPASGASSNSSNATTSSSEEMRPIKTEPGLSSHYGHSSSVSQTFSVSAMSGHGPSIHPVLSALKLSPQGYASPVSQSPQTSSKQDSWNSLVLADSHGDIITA
UniProt P43694, whole entry G150W: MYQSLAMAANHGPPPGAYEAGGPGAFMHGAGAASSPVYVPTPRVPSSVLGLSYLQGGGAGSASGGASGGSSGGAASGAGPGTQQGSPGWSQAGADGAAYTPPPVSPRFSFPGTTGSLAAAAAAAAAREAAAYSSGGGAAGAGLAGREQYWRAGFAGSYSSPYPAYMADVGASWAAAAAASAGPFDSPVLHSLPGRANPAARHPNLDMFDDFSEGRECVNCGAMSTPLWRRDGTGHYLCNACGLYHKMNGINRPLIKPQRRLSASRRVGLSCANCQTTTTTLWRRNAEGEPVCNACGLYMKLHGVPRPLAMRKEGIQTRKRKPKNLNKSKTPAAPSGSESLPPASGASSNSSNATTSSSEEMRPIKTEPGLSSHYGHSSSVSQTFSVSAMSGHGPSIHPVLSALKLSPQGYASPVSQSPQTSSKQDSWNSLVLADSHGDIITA
UniProt P43694, whole entry T280M: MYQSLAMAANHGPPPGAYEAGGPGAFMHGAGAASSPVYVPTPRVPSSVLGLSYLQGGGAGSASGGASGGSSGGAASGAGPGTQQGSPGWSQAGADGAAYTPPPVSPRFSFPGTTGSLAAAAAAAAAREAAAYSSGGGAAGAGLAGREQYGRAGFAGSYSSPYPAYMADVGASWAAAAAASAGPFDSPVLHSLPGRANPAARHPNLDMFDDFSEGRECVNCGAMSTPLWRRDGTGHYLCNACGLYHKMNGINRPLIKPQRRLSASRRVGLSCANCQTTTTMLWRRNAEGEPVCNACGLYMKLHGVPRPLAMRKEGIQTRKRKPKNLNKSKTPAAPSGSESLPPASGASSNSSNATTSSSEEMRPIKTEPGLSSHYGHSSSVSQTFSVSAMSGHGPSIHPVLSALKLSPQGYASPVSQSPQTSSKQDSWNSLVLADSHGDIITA

Columns and labels:
Assay in all cases: EMSA
Details in all cases: poly(dI-dC); LightShift kit 1x binding buffer, 1 ug poly(dI-dC), 2 ul nuclear extract, 1 pmol biotin probe, 20 ul, 20 min at room temperature; 6% native PAGE, 0.5x TBE; protein in a lysate after overexpression; residues 1-442; protein details: Myc; label: biotin (cold as competitor)
[1] = molecular target: GATA4 A74D (Homo sapiens) (UniProt P43694)
[2] = molecular target: GATA4 G150W (Homo sapiens) (UniProt P43694)
[3] = molecular target: GATA4 T280M (Homo sapiens) (UniProt P43694)

Measured: binding result

GCAGTTAACTGATAATGACACTGTG (double strand) [dHAND GATA element]
binds more weakly: all assays above
